Some of the results follow.
B1: il10ra_site1_sap_11_mot_HHH_b1_06348_000000162_0001_1_15_H_._HHH_b1_01184_af2_0002_0000500007_0000001_0_0001_af2pred_0001 (protein)
chain: SSSSSSDDIEEVIRLIREALHIDDPEEAREVLEEAEELARESNNPFLRFLVESALKKLSSSSSSS
B2: il10ra_site1_normal_mot_HHH_b2_00984_000000042_0001_1_20_H_._HHH_b1_00267_af2_0001_0000100004_0000002_0 (protein)
chain: SSSSSSDLEELLEELEELVEEGDREEASRLAAELVRLAFRLSDPEILQAVWKLIQSLRSSSSSSS
B3: il10ra_site1_sap_23_mot_HHH_b2_00479_000000091_0001_1_12_H_._HHH_b2_04892_af2_0001_0000800022_0000001_0_0001 (protein)
chain: SSSSDQAMRYIVEWVLENAERQVELGNPEKARIQLEALAEHLKQAGDEELLELVEELLERLSSSS
B4: il10ra_site1_sap_15_mot_HHH_b1_00814_af2_000000078_0001_43_57_H_._HHH_b2_00250_af2_0001_0000100010_0000001_0_0001_af2pred_0001 (protein)
chain: SSSSSRSAEEAIRRLLRAAKQLEDEERLKLAIRDALAAAEFLGNEELVEELRKILEELRSSSSSS
B5: il10ra_site1_normal_mot_65b8060e20531850bca9f2e11f97d954_0001_af2_000000137_0001_17_31_H_._HHH_b1_05146_af2_0001_0000500027_0000002_0 (protein)
chain: SSSSDDEVLELLVRVSRLLAEGNREEAEELLEELEKLIEELGDPRLELSLRFLEALLRSLSSSSS
B6: il10ra_site1_normal_mot_HHH_b2_08186_000000021_0001_43_56_H_._HHH_b2_03966_af2_0001_0000200007_0000002_0 (protein)
chain: SSSSDEEEERIEELLEEARRRFEEGDPERVLRLLLEALQLAYRTSDPELLKEIWELLKELSSSSS
B7: il10ra_site1_sap_12_mot_HHH_b2_01447_af2_000000258_0001_1_20_H_._HHH_b1_05821_0001_0000200018_0000002_0_0001_af2pred_0001 (protein)
chain: SSSSNYEERVAELLFEALELAARGNPEEARRLVEEAEEIAEENNDEELQRAVEILKRFIRSSSSS
B8: il10ra_site1_sap_25_mot_ems_3hM_235_000000244_0001_46_64_H_._HHH_b2_04950_0001_0000100004_0000002_0_0001_af2pred_0001 (protein)
chain: SSSSDEEYEEEVERLLEEAKHIEDPEEVKKIIAEAARLASEAKNPELAELVLQVWAELVDSSSSS
B9: il10ra_site1_sap_24_mot_HHH_b1_05587_000000266_0001_24_40_H_._HHH_b1_06872_0001_0000300018_0000002_0_0001 (protein)
chain: SSSSDARELVLRLLMRAVRLLFRGNPEEARELVEEAEEIAKELNDPELLRAAEIVLRMIEGSSSS
B10: il10ra_site1_normal_mot_HHH_b1_05357_000000034_0001_23_39_H_._HHH_b1_03844_0001_0000100001_0000001_0_af2pred_0001 (protein)
chain: SSSSDKEEVAYLLLRAYAAASQGNPEEAEELLEEAERIAEENNNERLKISIEIAKRAVRELSSSS
B11: il10ra_site1_normal_mot_HHH_b1_06789_af2_000000041_0001_1_20_H_._HHH_b2_01741_0001_0000400040_0000001_0_af2pred_0001 (protein)
chain: SSSSTLEEDVRSALRAAELLAEKGDPELAERALEIAELLAEQANDPELEELVEEVRKRVEGSSSS
B12: il10ra_site1_sap_19_mot_HHH_b1_00999_000000080_0001_41_55_H_._HHH_b2_01341_0001_0000100003_0000001_0_0001 (protein)
chain: SSSSSSDEAREEAEELVEEAKEIEDPREALRLLQKAVRLALRGNDEELLQEIWELALRLSSSSSS
B13: il10ra_site1_sap_17_mot_HHH_b1_06788_af2_000000238_0001_19_36_H_._HHH_b1_06164_af2_0001_0000500015_0000001_0_0001 (protein)
chain: SSSSDEEERRLAELFVEASRLWDEGNPEEAEKVTRELEELARELGDEEAKISVEFLKALNSSSSS
B14: il10ra_site1_normal_mot_HHH_b1_01555_000000194_0001_1_18_H_._HHH_b1_01506_0001_0000500031_0000001_0 (protein)
chain: SSSSDLEEYVKLTERFAKALLKSGDPEAARRLLRAALDAAKRANDPELLERLEELLEEVEKSSSS
B15: il10ra_site1_normal_mot_HHH_b1_05056_000000217_0001_1_20_H_._HHH_b2_04285_0001_0000100002_0000001_0 (protein)
chain: SSSSDLEEEIERLEEELREARERGDKELALQLLLRLLRLAYETRDEELLRELWEIVRKLFSSSSS
B16: il10ra_site1_normal_mot_HHH_b1_00929_000000068_0001_1_20_H_._HHH_b2_07413_0001_0000400041_0000002_0 (protein)
chain: SSSSDILEEVWELARKVVELIENGNPEEARKLVEEIEELAEEFNNELVEFLARQLKIRIDSSSSS
B17: il10ra_site1_sap_20_mot_HHH_b1_02397_af2_000000085_0001_39_57_H_._HHH_b2_06748_af2_0001_0000600026_0000002_0_0001_af2pred_0001 (protein)
chain: SSSSSRVELAAHQAKHDAKAAGDEEAQEKVEEVEEALERGEISEQEALHLLAKILREITESSSSS
B18: il10ra_site1_sap_13_mot_HHH_b1_08411_af2_000000053_0001_1_20_H_._HHH_b2_01294_af2_0001_0000100012_0000002_0_0001 (protein)
chain: SSSSSDADEIYELLRRALELLANGNPEEARKVLEEAEELAEEAGNWTFRFAIELLQREANSSSSS
B19: il10ra_site1_normal_mot_HHH_b1_04771_000000013_0001_40_56_H_._HHH_b2_04957_af2_0001_0000100002_0000001_1 (protein)
chain: SSSSSEEVEEAVELSTKAFRLALRGNDEEAEEVLKEALKIAEEGNDPRIREVVEDLLQALSSSSS
B20: il10ra_site1_sap_21_mot_HHH_b2_00066_000000124_0001_1_17_H_._HHH_b1_00973_0001_0000400027_0000001_0_0001 (protein)
chain: SSSSDEEFEHTREVYEEALELYRRGNEEEAKELLEEAEKELEKNNNWITLFALRHLLRLIGSSSS
B21: il10ra_site1_normal_mot_2c1a291787c6f40772924d4e9068d803_0001_af2_000000187_0001_34_48_H_._HHH_b1_05549_af2_0001_0000900022_0000001_1_af2pred_dldesign_0_af2pred (protein)
chain: SSSSSKEDYDLAVRAYRLAKALGREDLVEEIARLYAELSRTGDPKYKERLEEILAALEAESSSSS
B22: il10ra_site1_normal_mot_HHH_b2_06497_000000202_0001_1_20_H_._HHH_b1_02857_0001_0000200011_0000001_0 (protein)
chain: SSSSDLNEEIYRLLRRVAELIRRGDEEEAERVLEEVKQLAEEANSPVFRFAVRQLEILLNSSSSS
B23: il10ra_site1_sap_19_mot_HHH_b1_06789_af2_000000041_0001_1_20_H_._HHH_b2_02212_af2_0001_0000300005_0000002_0_0001_af2pred_dldesign_0_af2pred (protein)
chain: SSSSSKEEIRAQTRYRLAAARELEDPAERELTLRVAEAEAKYLGDEELLAEIEEVRAELSSSSSS
B24: il10ra_site1_normal_mot_HHH_b1_08477_000000091_0001_40_57_H_._ems_p1-16H-GBL-16H-GABBL-16H_0045_0001_0001_0002_0001_0000300008_0000001_0 (protein)
chain: SSSSDYVEQAARFAEALARAHGDEEALEKVEEVEEALERGEISEQEALELLAEILRRIARSSSSS
B25: il10ra_site1_sap_13_mot_HHH_b1_03763_000000209_0001_22_38_H_._HHH_b1_02042_0001_0000100011_0000001_0_0001 (protein)
chain: SSSSSSRDELYELLERVLELLAQGNEEEAREVIKEARELAEELGNRVMLVNIRFLERAVNSSSSS
B26: il10ra_site1_sap_21_mot_HHH_b2_04873_000000007_0001_40_56_H_._HHH_b1_06271_0001_0000700043_0000001_0_0001_af2pred_0001 (protein)
chain: SSSSDEREERAVRLLLLSAKRVPDPKLREAALRLAEAAARALGDPELEELVEEVQRELEENSSSS
B27: il10ra_site1_sap_19_mot_HHH_b2_08004_000000101_0001_1_17_H_._HHH_b2_01013_af2_0001_0000100003_0000002_0_0001 (protein)
chain: SSSSDEEEVERLLEEAEEARKEGDPELVIRLLREAVQIAFRSRNPELLRRIWEVVKRLGKSSSSS
B28: il10ra_site1_normal_mot_49468d6c54d8157f7969f91124172a68_0001_af2_000000173_0001_37_51_H_._HEEHE_0126_af2_0001_0000100006_0000002_0_af2pred_0001 (protein)
chain: DLAEAIKIAVEIAAERYNVPSVTVEVHNGEVHVEIEGDDREARQLEKLAKLSARLLNVKLEVEVE
B29: il10ra_site1_normal_mot_HHH_b1_03031_af2_000000117_0001_17_33_H_._HHH_b2_07811_af2_0001_0000600010_0000002_0 (protein)
chain: SSSSDEEEVKELEEELEKAKEEGDKEKAREIVQELILLAARLRDEELSQKAIEAWAKLAQNSSSS
B30: il10ra_site1_normal_mot_HHH_b1_05326_000000242_0001_1_20_H_._HHH_b1_08480_0001_0000400036_0000001_1 (protein)
chain: SSSSSEELQEVLELSRHAFRLALHGNPEEARELLEEAIELAREAGNPRLLRALEDLLKILNSSSS
B31: il10ra_site1_normal_mot_HHH_b2_00277_af2_000000172_0001_1_17_H_._HHH_b2_03103_0001_0000100010_0000002_0_af2pred_0001 (protein)
chain: SSSSDEEELEKEIEELLEEAKKIEDPRELSYLLVRAFALAVEGRDPELEELVKKVAQELISSSSS
B32: il10ra_site1_normal_mot_HHH_b2_03328_af2_000000127_0001_1_19_H_._HHH_b1_03894_0001_0000100001_0000001_0 (protein)
chain: SSSSSSNELYELSREALELFANGNPEEAQRVVEEAIELAEELGNRVILFTLRHLLRVISSSSSSS
B33: il10ra_site1_normal_mot_39ab2cb694c8b9c1dc7e65c0d672c93e_0001_000000036_0001_53_65_H_._HHH_b2_05692_af2_0001_0000600025_0000002_0 (protein)
chain: SSSSDEEEEELRELVEEVERLIERNDREEALRVAAEALRLAFRARNPEVLQLLWELAKLLSSSSS
B34: il10ra_site1_normal_mot_HHH_b2_07731_000000003_0001_42_56_H_._HHH_b2_03545_0001_0000300038_0000001_0_af2pred_0001 (protein)
chain: SSSSDEVQEEVERLLEEARELFEKGNPQEAFRLIREAAEIAAENRDPEALKLVSKLAQELISSSS
B35: il10ra_site1_sap_15_mot_HHH_b1_04036_000000109_0001_1_15_H_._HHH_b2_00730_0001_0000100001_0000001_0_0001 (protein)
chain: SSSSDEEVEELLEQAKELLEEGNHEEAMRLAVEALRIAYRAKDPRLIQLVWEVIRELAELRSSSS
B36: il10ra_site1_sap_21_mot_HHH_b2_07873_af2_000000172_0001_1_19_H_._87bccf00243209e7f763f401d09c0631_0001_0002_0000400012_0000002_0_0001 (protein)
chain: SSSSTALHEVWRLSREFIELAQEGDEEKAEEVLKEIEELARESNSPLARYILEVLERALKSSSSS
B37: il10ra_site1_normal_mot_HHH_b1_03900_000000129_0001_1_16_H_._HHH_b2_01195_0001_0000400015_0000002_0_af2pred_0001 (protein)
chain: SSSSSSDEEREEAEELHREVEEDPRHSYKLLKELARLALKSRNPEIIRLALELAEELKRSSSSSS

molecular target: il10ra, Q13651; experiment: yeast display titration

Apparent Kd, inactive:
B1 no binding seen, B2 no binding seen, B3 no binding seen, B4 no binding seen, B5 no binding seen, B6 no binding seen, B7 no binding seen, B8 no binding seen, B9 no binding seen, B10 no binding seen, B11 no binding seen, B12 no binding seen, B13 no binding seen, B14 no binding seen, B15 no binding seen, B16 no binding seen, B17 no binding seen, B18 no binding seen, B19 no binding seen, B20 no binding seen, B21 no binding seen, B22 no binding seen, B23 no binding seen, B24 no binding seen, B25 no binding seen, B26 no binding seen, B27 no binding seen, B28 no binding seen, B29 no binding seen, B30 no binding seen, B31 no binding seen, B32 no binding seen, B33 no binding seen, B34 no binding seen, B35 no binding seen, B36 no binding seen, B37 no binding seen
